Results as given in patent US20170283457A1 (YEDA RESEARCH AND DEVELOPMENT, published 2017).
No constants are given. Whether binding was seen depends on the method and setting. For part of these data: Binding seen in cells or lysates may run through a third protein. Some entries that bind do so weakly or less than the wild type.

Amino acid sequences for entries named in this document (tags omitted). Residues count along the entry.
UniProt O95373: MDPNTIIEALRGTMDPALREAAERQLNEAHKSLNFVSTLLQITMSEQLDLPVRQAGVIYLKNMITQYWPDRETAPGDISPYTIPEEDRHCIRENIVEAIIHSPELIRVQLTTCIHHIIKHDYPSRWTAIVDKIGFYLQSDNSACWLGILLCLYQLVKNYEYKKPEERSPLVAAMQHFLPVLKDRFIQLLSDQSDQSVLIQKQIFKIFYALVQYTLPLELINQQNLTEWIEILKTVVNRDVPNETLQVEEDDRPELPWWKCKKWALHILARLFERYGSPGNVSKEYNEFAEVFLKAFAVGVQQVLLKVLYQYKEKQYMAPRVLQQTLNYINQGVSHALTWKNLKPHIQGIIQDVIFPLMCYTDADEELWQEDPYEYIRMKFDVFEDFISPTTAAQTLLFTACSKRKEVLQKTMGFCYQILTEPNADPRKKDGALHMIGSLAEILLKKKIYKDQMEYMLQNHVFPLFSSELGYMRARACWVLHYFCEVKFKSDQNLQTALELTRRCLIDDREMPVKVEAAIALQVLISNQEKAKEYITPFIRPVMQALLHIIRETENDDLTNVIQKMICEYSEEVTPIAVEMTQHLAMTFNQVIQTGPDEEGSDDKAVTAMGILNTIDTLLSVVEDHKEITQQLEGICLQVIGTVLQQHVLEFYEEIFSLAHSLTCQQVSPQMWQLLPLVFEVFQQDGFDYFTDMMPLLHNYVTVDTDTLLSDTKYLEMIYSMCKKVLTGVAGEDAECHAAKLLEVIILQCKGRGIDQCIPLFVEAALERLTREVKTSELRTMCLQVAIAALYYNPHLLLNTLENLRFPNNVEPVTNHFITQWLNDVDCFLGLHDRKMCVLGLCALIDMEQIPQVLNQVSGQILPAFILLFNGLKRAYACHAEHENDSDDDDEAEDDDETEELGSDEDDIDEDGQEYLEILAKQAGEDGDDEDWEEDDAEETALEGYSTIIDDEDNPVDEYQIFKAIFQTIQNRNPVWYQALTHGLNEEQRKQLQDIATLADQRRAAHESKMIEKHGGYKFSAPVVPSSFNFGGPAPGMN
UniProt Q96P70, residues 2-1041: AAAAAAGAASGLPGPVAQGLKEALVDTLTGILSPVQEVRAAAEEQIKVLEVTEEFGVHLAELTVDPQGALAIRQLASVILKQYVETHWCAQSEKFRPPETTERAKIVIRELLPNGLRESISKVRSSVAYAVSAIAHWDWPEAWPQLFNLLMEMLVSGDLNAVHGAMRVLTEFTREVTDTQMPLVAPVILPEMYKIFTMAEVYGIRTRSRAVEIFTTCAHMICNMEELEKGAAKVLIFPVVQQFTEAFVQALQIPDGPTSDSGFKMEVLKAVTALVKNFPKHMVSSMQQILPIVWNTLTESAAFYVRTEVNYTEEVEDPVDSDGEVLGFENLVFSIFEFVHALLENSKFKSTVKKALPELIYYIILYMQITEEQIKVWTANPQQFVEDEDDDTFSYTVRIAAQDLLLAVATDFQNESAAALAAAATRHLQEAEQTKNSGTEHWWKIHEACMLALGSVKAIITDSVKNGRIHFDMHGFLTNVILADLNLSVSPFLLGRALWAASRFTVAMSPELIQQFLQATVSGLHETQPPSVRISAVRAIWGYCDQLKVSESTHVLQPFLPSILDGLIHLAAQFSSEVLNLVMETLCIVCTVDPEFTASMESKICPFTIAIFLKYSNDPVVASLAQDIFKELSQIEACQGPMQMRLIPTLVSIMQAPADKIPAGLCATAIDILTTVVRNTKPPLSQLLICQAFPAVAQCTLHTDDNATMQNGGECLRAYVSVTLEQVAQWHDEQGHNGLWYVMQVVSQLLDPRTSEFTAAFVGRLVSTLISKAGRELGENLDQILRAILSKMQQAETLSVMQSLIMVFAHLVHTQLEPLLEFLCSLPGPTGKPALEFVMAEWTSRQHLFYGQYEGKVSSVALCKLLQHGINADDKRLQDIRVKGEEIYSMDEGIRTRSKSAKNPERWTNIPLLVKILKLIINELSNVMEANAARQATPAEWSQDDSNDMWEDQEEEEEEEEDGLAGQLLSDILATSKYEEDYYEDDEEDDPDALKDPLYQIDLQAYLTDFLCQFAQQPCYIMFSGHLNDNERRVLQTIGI
UniProt P45983: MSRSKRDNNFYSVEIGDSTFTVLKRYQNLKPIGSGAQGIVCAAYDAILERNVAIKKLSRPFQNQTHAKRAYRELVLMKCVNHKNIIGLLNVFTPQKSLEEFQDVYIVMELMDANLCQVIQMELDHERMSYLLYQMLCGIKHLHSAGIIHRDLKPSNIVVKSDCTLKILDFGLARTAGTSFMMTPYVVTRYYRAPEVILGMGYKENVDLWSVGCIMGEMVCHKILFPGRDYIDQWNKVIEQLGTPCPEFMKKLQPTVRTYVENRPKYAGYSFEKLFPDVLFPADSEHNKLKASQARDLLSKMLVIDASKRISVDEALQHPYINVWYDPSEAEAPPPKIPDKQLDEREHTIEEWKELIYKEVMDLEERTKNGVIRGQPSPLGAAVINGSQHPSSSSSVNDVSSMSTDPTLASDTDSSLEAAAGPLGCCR

Columns and labels:
[1] = molecular target: T1, Importin7 (UniProt O95373 1-1038); test: in vitro interaction: GST-MAPK (500 ng) with Imp IPed from HeLa cells, Western blot
T1 construct: Endogenous protein; also called Imp7; RANBP7

[2] = molecular target: T2, Importin9 (UniProt Q96P70 2-1041); test: as above
T2 construct: Endogenous protein; also called Imp9; IMB5

[3] = molecular target: T1, Importin7; test: in vitro interaction: GST-MAPK with Imp IPed from stimulated HeLa cells, Western blot
Experimental: (§1) FIGS. 3A-3B illustrate that JNK1/2 and p38α/β directly interact with either Imp7 or Imp9 but not with Imp3. (A) In vitro interaction of JNK1/2 and p38α/β with Imp3/7/9. Purified Imp3/7/9 were prepared by IP as follows: HeLa cells were grown to 70% confluence, serum starved, and then were either stimulated with Anisomycin (Anis 0.5 μg/ml, 15 min), TPA (250 nM, 15 min) or left untreated (NT). Imp3/7/9 were then IPed from the cell's extracts and extensively washed, twice with RIPA buffer and once with 0.5M LiCl. The indicated GST-MAPKs were prepared from bacteria as described under Materials and methods. To examine association, 500 ng of each GST-MAPK were incubated with 20 μl of the indicated IPed Imps in PBS (2 hrs, 4° C., with rotation). The beads were then washed with washing buffer containing 150 mM NaCl, and interacting MAPKs were detected using Western blot analysis with the indicated Abs. (B) Imp3 is not required for Imp7/9 interactions with JNK1/2 and p38α/β. HeLa cells were treated with Si RNAs of Imp3 according to the manufacturer instructions. Forty eight hrs after transfection, the cells were serum starved, and then stimulated with Anisomycin (Anis 0.5 μg/ml) or TPA (TPA 250 ng) or left untreated (NT). Cell extracts were then subjected to Co-IP with anti Imp7 or Imp9, the interacting MAPKs were detected by Western blot with the indicated Abs. Amount of IPed Imps was detected by the indicated Abs.

[4] = molecular target: T2, Importin9; test: as above
Experimental: as §1

[5] = molecular target: T1, Importin7; test: Co-IP of overexpressed GFP-tagged MAPK in HeLa cells
[6] = molecular target: T2, Importin9; test: as above
[7] = molecular target: T1, Importin7; test: Co-IP with anti GFP Abs, transfected HeLa cells
Experimental: (§2) FIGS. 10A-10B illustrate that endogenous and overexpressed JNK1/2 and p38α/β CoIP with Imp3, 7 and 9. (A) A Co-IP screen to detect the importins interacting with JNK1/2 and p38α/β in MCF7 cells. MCF7 cells were grown on slides to 70% confluence, serums starved and then were either stimulated with Anisomycin (Anis 0.5 μg/ml, 15 min), TPA (250 nM, 15 min) or left untreated (NT). Cells extracts were then subjected to Co-IP with anti JNK1, JNK2, p38α, or p38β, and rabbit IgG as a negative control (Control). The interacting Imps or the IPed MAPKs were detected by Western blot with the indicated Imps or MAPK Abs. (B) Interaction of overexpressed MAPKs in HeLa cells. HeLa cells were transfected with either JNK2-GFP (wt-JNK2), p38ββ-GFP (wt-p38β) or GFP alone. Cells were serum starved, and then treated with Anisomycin (Anis 0.5 μg/ml, 15 min), TPA (250 nM, 15 min). Cells extracts were then subjected to a CoIP with anti GFP Abs. The interacting Imps and the loading extracts were detected using Western blot analysis with the indicated (left) Abs. The blots were developed with either NBT/BCIP or ECL. Arrows indicate interacting Imps.

[8] = molecular target: T2, Importin9; test: Co-IP with anti GFP Abs, transfected HeLa cells
Experimental: as §2

binding [1]	binding [2]	binding [3]	binding [4]	binding [5]	binding [6]	binding [7]	binding [8]	Substance
binds	binds	binds	binds					GST-JNK1 (from UniProt P45983 1-427) (enzyme)
binds	binds	binds	binds					GST-JNK2 (from UniProt P45984 1-424) (enzyme)
				binds	binds	binds	binds	JNK2-GFP (from UniProt P45984 1-424) (enzyme)
